Test results reported in the supplement of paper PMC5949888.
Most values lie at the floor of the assay. Slopes are relative: functional sequences can read slightly below zero.

These substances were tested on Saccharomyces cerevisiae PS128 hsf1 delta, HSF1(1-493) fusion (assay: growth estimate (transactivation domain function in HSF1 fusion, heat-shock survival) (a.u. (slope of normalised read count over time)); higher = stronger growth at 37°C, i.e. more transactivation activity). Details: library: random library.

Substance	growth estimate
WHDCRIGGLCVGLVGYN	-0.246
GGYHGRERGSRLADLLSHQA	< -0.25
KGGVMTSPDSLVSDYSEIGA	< -0.25
GKETHKGENRVGRVKEAGIR	< -0.25
CDISIRTWPGEIQ	< -0.25
RKSNASQLI	< -0.25
VHTTRSRDTWDETVKVDRVR	< -0.25
RQCVE	< -0.25
GLVRHTGKL	< -0.25
LSSVKRVLTIHSSQGVTWAS	< -0.25
PRSTRESRVETRRRPRAIKN	< -0.25
RPKTIPRLRPTAHETGAAKP	-0.248
AYCHLCSARFASDYC	-0.246
TRSVSRRGRACSFGPEPTQV	< -0.25
RSALSHRTLGQYMEPSDDS	< -0.25
KDRLQTFFGRSESFHRV	< -0.25
RKY	0.0112
TAVLLYSVRGFIL	< -0.25
GATLEMKRTIK	< -0.25
GRRENRKGLRNRNVTPCCEL	< -0.25
VRGLSC	< -0.25
WSNESRTSGRVK	-0.25
TDCS	< -0.25
LKGHRDVTQIRSKREHL	< -0.25
ASVKPSAPPAKVSVWGNA	< -0.25

Four entries from above, bar-delimited.
Substance | growth estimate
GKETHKGENRVGRVKEAGIR | < -0.25
RKSNASQLI | < -0.25
TAVLLYSVRGFIL | < -0.25
WSNESRTSGRVK | -0.25

(listing goes on)

Substance	growth estimate
VCSIHSDAYLSSRLSNWTRS	< -0.25
LFISSSEPSQ	< -0.25
REKLRR	< -0.25
QPSLSQKCS	< -0.25
RLEGKHDICCSTSYIGRVAQ	< -0.25
LSSGTNWRFSTLGL	< -0.25
RLQVGRLRRRCRVYMRLRPP	< -0.25
DASRSEEG	-0.0747
SLGGGEVRTSPVKIESGLTG	< -0.25
SLNRIRFGVLLTLSVPVRCD	< -0.25
TGTKYIFIAR	< -0.25
IGRHGSNSPRRSDGQTDY	< -0.25
ALCSLRTRSMKTVRREQFFN	< -0.25
TGGRGLSGVFGLNPSLRN	< -0.25
GSQ	< -0.25
QFHRAL	-0.229
ENLEVKVGISSLPSTPSKYV	< -0.25
FTLPGFDVGLSRRVDQEINP	< -0.251
EWAEDHSVGKYLLERMRPIR	< -0.25
WMRSTHHSCMNPPASVISDD	< -0.25
WDSPIGPLIPRIGRC	< -0.25
AVYRRENNDPLQILTCSPDS	-0.237
SGVYKPLASIPDRRATYWDS	< -0.25
TSGRLVHYRAHCHR	< -0.25
SRCTSVSGVPANGALTSG	< -0.25

Substance	growth estimate
PYLA	< -0.25
SRGFFVGYDEQYNSEVRTRS	< -0.25
PDMKLRLHLRLFSRLMIAR	< -0.25
LLPERGEHLIVTGYACWGRE	< -0.25
RRVTLRTKSHENGILLEYS	< -0.25
VIPSRSGKGASFG	< -0.25
PSLWSVTH	< -0.25
LCLYLACNGSHVYQRSDAVR	< -0.25
LWPYCEAYHISVPSLCHVSP	< -0.25
VGGGKTQNRNNSLLFSLGHR	< -0.25
TPPES	< -0.25
VVIAAVSHTVL	< -0.25
YFRGNRFALRASYGGSARWP	< -0.25
QWTSSCRIHSG	< -0.25
YSERTVPLLRILHAHIASLP	< -0.25
DSRGSRSGSRMLLEMFLWHR	< -0.25
ESVFPPLSSIILWLKIRSDQ	< -0.25
SNRVNCPTYPKNVTPLSARS	< -0.25
DHLQCGSTFLLGTTDS	< -0.25
CSLFRSPIRTPPIFLQRAHI	-0.113
RLPSIMARLHGCPLHRRKCL	< -0.25
DFLTRVATDTPVAVQEPAPE	< -0.25
LRFELGWQPFTILNLLVKGL	< -0.25
SIRGGHSREVGKYHQQ	< -0.25
ITVEERRVRYL	< -0.25

Substance	growth estimate
AALDAPERDR	< -0.25
ATGVPARRQIVVETSPFTFM	< -0.25
NMHDA	< -0.25
RLSPK	< -0.25
RSYG	< -0.25
NQVHKVRLATATGNNTASIA	< -0.25
LRKGVGVCN	< -0.25
DSVPHRFYFVSPFVYHVSLV	< -0.25
SSSVFKRGGVSCGKS	< -0.25
CSVLAQGFMNPETGWLAVIT	< -0.25
NRSG	< -0.25
GTRELQSKLRPW	< -0.25
VVETSD	< -0.25
LTNG	< -0.25
PGRDEALN	< -0.25
TSVTILGLIIDRCEAFRAPA	< -0.25
PWKTKPASASFAGRCV	-0.203
SREAHDEFLFEVPYYPMD	-0.246
PTIQVT	< -0.25
GKQVGRKGLHLYYTPTDRLT	-0.243
SCRSSIVVHWRCD	< -0.25
CPLRPGSMPCDSEPIVLSFG	< -0.25
LQTPRHNCEMVAHRDFGSWR	< -0.25
LCRLSGLRKSPTVLNRGARN	< -0.25
HKIK	< -0.25

Substance	growth estimate
FEES	< -0.25
TKRLCPRTTRGRPGSAWLKF	< -0.25
SLGPA	< -0.25
LSFGDRHRFAGWFPACTNST	< -0.25
LPKSLNLSTGEPFQLSNKIG	< -0.25
KPLFINYG	< -0.25
PGRVSAIGGGNRPFHVISPS	< -0.25
TGSSRPRIQASLLVTMAPTA	< -0.25
TNRGY	< -0.25
SVHL	< -0.25
GESHKVQIYRTTG	< -0.25
GVRAGIRAVHGQCYQALRTA	< -0.25
SYPELEFTRGFGAKGQLPTN	< -0.25
PIGSPLV	< -0.25
RIITMSCRGPSCRTRERGCM	< -0.25
DFS	< -0.25
QVASQDQ	< -0.25
TERGRS	< -0.25
WVEWVCQSLGYVKRFCRDLS	-0.243
RDTLLGFMVGRGLLKMGTHC	< -0.25
ALGLKGREITFSFFAVSLLT	< -0.25
IRKTVRRPVCVASEPSPVGG	< -0.25
LVYCL	< -0.25
GIRVRSEGGY	< -0.25
MGASVLG	< -0.25

For reference, some entries already given:
Substance	growth estimate
KPLFINYG	< -0.25
PGRVSAIGGGNRPFHVISPS	< -0.25
TGSSRPRIQASLLVTMAPTA	< -0.25
TNRGY	< -0.25
SVHL	< -0.25
GESHKVQIYRTTG	< -0.25

(next part)

Substance	growth estimate
RGHTGV	< -0.25
FRTGSGRSLSMTPRGACYTD	< -0.25
DRHVHCSRNLRIARACLDGS	< -0.25
HLVAFILRNLEAAKSILTTG	< -0.25
PLLASS	< -0.25
RTPNVIMGLVSPVAYPSSLD	< -0.25
SLKLIRFFGVAAIGFLEERF	< -0.25
MYGVGPLRPLHEDGSAIDMR	< -0.25
SRTGTKQQVRDVRWAVR	< -0.25
LAVRLPWRPFDNRFELSLGG	< -0.25
GRQRARQIRG	< -0.25
QCRGVHKLGGRYVHGTIEPL	< -0.25
SVLV	< -0.25
LAISTGVTTLPGRRVTRASG	< -0.25
GLG	< -0.25
GSSDPSYVIVSVP	< -0.25
GSNRMYPRPRVTGSSERSS	< -0.25
VQGAWSFRSFATILIVSQLP	< -0.25
SKMEGPFIILYWQMSRPTCR	< -0.25
SSPLLFG	-0.245
RADFNYCPGYEKIFYRATR	< -0.25
SLCAVPDRYPDEVRRTWPVA	-0.246
WLRLTMLHPVSY	-0.0136
GALVIFECPRQYVDPGTFLL	< -0.25
PAVQGNKWRKSIGNQTVLLS	< -0.25

Quoted at random: 4 records from the list, in no set order.
Substance	growth estimate
RTPNVIMGLVSPVAYPSSLD	< -0.25
LAISTGVTTLPGRRVTRASG	< -0.25
RGHTGV	< -0.25
SKMEGPFIILYWQMSRPTCR	< -0.25

The list goes on:

Substance	growth estimate
SYLAALESGN	< -0.25
EPSQSRPGIVVEGLKF	< -0.25
RTCYSLRGL	< -0.25
RAVYVPFESMPMTPVSRSAA	< -0.25
GGWLSQDANTRGSDARKHSA	< -0.25
SPWAHRRSVPKVFTVVKNGE	< -0.25
FRCHGHPLVST	< -0.25
GVGRIGLISQVLPRVHEGRP	-0.243
HSVRLLHRFTIREAGMLWLA	< -0.25
PTHSPNQSCVGNPERVRCQV	< -0.25
AQIDCRVIVRDFYIDASVFD	< -0.25
DGYAPVADKESGNYWRY	< -0.25
TAPNRVDLNVENAV	< -0.25
GAGWSLKVENGHVEVWSSGN	< -0.25
IHLVASHLESSTGVDSYSGV	< -0.25
WFVQNPQLSRLRYGDTST	< -0.25
GLWCDSTAAYGLEWKVSQSG	< -0.25
AARSEGLGYASKIQVRGVKR	< -0.25
EPLSATI	< -0.25
WIHPVPELVRIGGVSQRDSR	< -0.25
GLSYTNCLA	< -0.25
GTRSVKQGF	< -0.25
ESALPGPGVYKLTSSKYGTP	< -0.25
KYSERG	< -0.25
FNCTTLPGW	< -0.25

Substance	growth estimate
VGARCFCPREGPFNLPVRSK	< -0.25
NSRPSLVWA	< -0.25
GHKRTLDVQATGTTGGGQAG	< -0.25
RAMLVLLALSFAHAGKAPGS	< -0.25
IAETTKRWFSTESPPLR	< -0.25
LGVSSGIKKLVPKIPDAAAE	< -0.25
LSMTETCKNGRTL	< -0.25
EGSDTRVYGTVE	< -0.25
NQRRWRQSTSRWHPLIRVVQ	< -0.25
LVTRLNHRFRDLVHRDFVAL	< -0.25
STRRGIRRRSWFR	< -0.25
VQYSQNLFHVDMVCVLGPHI	< -0.25
MIFVKSAPLVL	< -0.25
PHCS	< -0.25
AEGRINDSRVRESIGEHRMQ	< -0.25
CGREIRDSAVSQRIHVLCEP	-0.245
MAN	< -0.25
PIFTLVLGIRLATNFIG	< -0.25
QPTGITAQSLTRSVVISACT	< -0.25
PSYIRRL	< -0.25
YWNMEAAVGQNIR	-0.0414
GPLKGRGYVASLSFCSPLYV	< -0.25
